{"source": "patent US20100267637A1", "about": "“TREATMENT OF MELANOMA WITH ALPHA THYMOSIN PEPTIDES IN COMBINATION WITH A KINASE INHIBITOR” (SciClone Pharmaceuticals, Inc., priority 2007, published 2010)", "tested_on": "murine B16 melanoma cells", "test": "Anti-tumor effect: tumor size / tumor volume in mice bearing subcutaneous B16 melanoma", "assay_type": "in vivo, C57BL/6 mice", "conditions": "daily dosing Days 3-15", "method": "The toxic effects of the dosing regimens were also monitored. […] Meanwhile 9H10 was given in two groups via i.p. on Day 3, 6 and 9. […] Tumor volume and body weight were measured every three days, and tumor weights were measured on Day 16 at the end of the study.\nAs per aseptic tissue culture procedures, one vial of B16 melanoma cells was removed from the liquid nitrogen stock, and placed into a 37° C. water bath. Gentle swirling was conducted until the content of the vial was thawed. Using tissue culture/sterile procedures, the cells were immediately centrifuged with a TD5A-WS centrifuge at 1000 rpm, 20-25° C., 5 min. After centrifugation, the cells were suspended in 0.1 to 0.5 mL normal saline (NS) and subcutaneously injected into 10 mice (0.1 mL/mouse, about 1×10^6 cells). After 7-10 days, when the tumor diameter was approximately 1 cm, the animals were euthanized with CO2 overdose and the tumors excised. […]\nFrom Day 1 to Day 15, mortality and moribundity were checked twice daily, the body weights were recorded once every 3 days, and tumors were measured using a caliper once every 3 days. […]\nBased on the tumor size, the tumor volume (TV) was calculated with the formula: [TV=(Length×Width×Width)/2]. And the percent inhibition (PI) of TV (PITV) was calculated according to the equation below: […]", "note": "Entries after “also recorded” stand apart in the source; their conditions may differ. For at least one compound, name, drawing or mass did not settle the structure."}
{"compound": "CN(C)/N=N/c1[nH]cnc1C(N)=O", "note": "[DTIC, Dacarbazine]", "values": [{"measurement": "effect on tumor growth in words", "result": "modest inhibition in tumor growth; also recorded: tumor growth was inhibited"}]}
